Reference: the supplement of paper PMC12819154, “High-throughput peptide-centric local stability assay extends protein–ligand identification to membrane proteins, tissues and bacteria” (Nature Structural & Molecular Biology, 2025)
This is one part of the list. Small differences around the control level are noise.

The chains behind the UniProt entries cited, without tags or fusion partners. Where a name states a change or a piece, a line headed by the entry shows the natural chain unless it says otherwise.
UniProt P99029: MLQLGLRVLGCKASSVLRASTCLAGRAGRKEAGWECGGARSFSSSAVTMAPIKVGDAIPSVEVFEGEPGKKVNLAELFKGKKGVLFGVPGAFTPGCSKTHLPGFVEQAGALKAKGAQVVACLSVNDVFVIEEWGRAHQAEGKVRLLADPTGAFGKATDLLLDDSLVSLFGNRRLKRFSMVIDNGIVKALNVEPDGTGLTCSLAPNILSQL
UniProt Q01320: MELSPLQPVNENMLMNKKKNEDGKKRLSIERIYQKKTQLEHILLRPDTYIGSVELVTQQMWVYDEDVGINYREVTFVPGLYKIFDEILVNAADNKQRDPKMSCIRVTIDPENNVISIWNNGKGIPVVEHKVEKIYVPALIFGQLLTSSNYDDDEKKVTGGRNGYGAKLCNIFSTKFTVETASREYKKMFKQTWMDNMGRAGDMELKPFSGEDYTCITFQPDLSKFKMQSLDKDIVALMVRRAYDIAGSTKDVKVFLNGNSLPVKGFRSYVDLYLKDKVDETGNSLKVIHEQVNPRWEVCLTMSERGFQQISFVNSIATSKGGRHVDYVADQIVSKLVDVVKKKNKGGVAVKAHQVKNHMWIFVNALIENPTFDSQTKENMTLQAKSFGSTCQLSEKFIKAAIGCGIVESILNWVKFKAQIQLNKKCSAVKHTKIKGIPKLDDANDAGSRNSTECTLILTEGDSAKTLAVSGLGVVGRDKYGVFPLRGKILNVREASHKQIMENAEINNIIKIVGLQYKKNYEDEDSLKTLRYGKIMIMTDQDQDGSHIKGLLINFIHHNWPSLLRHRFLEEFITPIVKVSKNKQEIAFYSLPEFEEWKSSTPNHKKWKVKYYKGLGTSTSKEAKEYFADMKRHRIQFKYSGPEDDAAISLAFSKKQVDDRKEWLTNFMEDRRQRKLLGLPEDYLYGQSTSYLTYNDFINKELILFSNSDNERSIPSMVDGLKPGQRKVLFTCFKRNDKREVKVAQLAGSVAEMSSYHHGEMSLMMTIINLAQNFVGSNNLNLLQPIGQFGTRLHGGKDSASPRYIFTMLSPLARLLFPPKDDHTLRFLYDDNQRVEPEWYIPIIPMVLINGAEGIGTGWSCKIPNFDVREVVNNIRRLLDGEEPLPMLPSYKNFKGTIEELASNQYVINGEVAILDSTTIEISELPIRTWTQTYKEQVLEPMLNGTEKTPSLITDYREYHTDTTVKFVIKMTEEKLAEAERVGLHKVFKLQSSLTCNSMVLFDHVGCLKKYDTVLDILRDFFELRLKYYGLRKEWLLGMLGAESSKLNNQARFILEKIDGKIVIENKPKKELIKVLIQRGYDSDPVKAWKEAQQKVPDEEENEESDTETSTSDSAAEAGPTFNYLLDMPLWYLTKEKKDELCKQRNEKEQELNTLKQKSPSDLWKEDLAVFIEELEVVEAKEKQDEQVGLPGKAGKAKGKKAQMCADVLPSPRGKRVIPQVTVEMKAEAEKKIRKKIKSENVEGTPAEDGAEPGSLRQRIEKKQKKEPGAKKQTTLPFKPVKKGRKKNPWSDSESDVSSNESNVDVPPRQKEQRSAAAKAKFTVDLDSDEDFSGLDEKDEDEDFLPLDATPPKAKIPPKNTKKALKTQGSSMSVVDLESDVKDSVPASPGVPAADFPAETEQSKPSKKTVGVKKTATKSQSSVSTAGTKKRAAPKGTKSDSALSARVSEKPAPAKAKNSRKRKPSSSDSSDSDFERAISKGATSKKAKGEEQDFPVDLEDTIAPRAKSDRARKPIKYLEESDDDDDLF
UniProt P70694: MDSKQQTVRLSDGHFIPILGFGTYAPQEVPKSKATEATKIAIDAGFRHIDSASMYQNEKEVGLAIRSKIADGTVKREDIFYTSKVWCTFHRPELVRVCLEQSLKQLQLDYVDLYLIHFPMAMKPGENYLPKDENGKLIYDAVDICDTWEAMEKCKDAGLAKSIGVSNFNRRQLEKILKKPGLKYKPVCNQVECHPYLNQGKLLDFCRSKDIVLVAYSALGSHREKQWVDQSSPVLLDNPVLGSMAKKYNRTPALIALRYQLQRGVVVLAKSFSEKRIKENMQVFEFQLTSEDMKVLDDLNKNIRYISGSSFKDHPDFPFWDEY
UniProt P70295: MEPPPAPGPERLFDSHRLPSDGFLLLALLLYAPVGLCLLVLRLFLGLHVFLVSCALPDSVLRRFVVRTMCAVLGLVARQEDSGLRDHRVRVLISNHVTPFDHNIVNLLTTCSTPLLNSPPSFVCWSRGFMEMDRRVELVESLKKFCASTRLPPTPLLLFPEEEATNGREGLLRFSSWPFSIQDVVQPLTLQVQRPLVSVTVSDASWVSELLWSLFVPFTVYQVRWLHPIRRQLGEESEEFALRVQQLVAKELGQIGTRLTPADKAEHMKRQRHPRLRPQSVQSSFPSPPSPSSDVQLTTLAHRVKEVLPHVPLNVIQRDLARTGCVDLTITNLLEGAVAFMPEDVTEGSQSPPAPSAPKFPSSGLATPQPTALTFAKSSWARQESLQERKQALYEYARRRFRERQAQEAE
UniProt P70206: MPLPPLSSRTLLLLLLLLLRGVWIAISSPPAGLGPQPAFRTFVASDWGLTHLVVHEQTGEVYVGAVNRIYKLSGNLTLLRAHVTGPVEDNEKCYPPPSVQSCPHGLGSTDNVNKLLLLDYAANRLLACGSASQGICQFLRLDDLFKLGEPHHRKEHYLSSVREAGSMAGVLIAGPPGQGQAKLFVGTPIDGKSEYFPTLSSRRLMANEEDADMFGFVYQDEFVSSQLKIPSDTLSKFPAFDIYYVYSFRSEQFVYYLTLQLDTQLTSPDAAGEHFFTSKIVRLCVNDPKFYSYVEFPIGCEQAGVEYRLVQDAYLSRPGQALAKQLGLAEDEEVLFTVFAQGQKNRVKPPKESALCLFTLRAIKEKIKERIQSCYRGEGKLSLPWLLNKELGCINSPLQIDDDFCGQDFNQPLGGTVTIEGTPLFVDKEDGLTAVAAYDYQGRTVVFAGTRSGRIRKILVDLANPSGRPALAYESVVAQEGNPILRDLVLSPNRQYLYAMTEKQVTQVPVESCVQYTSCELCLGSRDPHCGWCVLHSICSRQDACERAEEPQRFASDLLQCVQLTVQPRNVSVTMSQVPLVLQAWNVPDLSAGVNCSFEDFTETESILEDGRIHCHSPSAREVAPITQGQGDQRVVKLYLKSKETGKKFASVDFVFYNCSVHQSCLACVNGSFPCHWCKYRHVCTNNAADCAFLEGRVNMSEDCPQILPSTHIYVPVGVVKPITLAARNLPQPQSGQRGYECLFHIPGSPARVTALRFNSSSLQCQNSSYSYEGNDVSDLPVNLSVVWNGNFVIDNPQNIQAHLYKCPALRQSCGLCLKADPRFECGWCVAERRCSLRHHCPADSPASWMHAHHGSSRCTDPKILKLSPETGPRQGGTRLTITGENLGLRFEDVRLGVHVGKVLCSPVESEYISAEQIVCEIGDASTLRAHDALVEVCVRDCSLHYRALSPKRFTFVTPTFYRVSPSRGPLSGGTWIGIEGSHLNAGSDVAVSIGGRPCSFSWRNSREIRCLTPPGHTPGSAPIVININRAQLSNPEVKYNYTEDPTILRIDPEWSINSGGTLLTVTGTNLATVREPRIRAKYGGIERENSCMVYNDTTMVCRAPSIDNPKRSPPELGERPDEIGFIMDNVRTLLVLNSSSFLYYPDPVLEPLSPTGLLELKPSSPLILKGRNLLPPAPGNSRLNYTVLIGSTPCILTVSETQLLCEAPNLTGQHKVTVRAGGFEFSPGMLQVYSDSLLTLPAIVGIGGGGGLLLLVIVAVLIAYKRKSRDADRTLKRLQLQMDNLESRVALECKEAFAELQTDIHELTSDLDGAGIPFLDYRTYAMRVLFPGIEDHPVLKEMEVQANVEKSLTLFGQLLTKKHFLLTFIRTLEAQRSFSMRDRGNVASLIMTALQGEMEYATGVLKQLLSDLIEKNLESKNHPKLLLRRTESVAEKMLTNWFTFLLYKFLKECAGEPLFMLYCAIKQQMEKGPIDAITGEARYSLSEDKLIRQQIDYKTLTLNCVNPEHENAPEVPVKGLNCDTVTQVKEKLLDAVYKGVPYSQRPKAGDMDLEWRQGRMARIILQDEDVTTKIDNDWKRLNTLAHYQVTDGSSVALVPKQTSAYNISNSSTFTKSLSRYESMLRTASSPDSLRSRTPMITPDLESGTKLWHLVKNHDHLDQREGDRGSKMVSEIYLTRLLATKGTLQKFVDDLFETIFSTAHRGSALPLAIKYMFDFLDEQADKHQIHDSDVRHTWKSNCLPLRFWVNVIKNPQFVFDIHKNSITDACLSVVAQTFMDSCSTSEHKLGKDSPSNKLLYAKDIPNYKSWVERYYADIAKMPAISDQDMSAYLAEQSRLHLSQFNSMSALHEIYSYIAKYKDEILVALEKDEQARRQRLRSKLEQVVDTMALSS
UniProt P99026: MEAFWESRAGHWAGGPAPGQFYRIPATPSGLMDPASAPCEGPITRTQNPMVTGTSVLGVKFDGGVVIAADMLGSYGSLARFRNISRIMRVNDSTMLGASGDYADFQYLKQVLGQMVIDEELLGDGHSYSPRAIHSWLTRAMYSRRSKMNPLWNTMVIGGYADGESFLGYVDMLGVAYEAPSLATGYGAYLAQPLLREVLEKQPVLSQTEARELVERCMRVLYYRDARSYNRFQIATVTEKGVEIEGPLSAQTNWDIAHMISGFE
UniProt P70172: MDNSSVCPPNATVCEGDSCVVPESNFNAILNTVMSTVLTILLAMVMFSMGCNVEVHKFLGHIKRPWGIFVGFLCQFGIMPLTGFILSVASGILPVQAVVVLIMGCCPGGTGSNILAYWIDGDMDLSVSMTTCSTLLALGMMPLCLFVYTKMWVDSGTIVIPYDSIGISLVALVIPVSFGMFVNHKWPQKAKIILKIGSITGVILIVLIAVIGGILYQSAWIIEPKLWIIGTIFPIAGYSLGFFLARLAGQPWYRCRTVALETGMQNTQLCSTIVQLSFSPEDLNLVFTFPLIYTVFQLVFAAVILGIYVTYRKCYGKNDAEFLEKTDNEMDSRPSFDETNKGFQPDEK
UniProt P97355: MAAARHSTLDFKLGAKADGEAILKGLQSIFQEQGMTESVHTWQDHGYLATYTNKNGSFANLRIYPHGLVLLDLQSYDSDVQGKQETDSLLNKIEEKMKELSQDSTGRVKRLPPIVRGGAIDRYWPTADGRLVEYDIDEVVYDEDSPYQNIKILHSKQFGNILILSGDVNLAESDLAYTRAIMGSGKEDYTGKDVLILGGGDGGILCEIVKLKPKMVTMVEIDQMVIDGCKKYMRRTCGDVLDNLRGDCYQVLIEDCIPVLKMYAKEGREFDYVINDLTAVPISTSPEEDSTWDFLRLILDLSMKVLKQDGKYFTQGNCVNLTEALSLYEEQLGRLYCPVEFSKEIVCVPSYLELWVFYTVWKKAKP
UniProt P70699, whole entry: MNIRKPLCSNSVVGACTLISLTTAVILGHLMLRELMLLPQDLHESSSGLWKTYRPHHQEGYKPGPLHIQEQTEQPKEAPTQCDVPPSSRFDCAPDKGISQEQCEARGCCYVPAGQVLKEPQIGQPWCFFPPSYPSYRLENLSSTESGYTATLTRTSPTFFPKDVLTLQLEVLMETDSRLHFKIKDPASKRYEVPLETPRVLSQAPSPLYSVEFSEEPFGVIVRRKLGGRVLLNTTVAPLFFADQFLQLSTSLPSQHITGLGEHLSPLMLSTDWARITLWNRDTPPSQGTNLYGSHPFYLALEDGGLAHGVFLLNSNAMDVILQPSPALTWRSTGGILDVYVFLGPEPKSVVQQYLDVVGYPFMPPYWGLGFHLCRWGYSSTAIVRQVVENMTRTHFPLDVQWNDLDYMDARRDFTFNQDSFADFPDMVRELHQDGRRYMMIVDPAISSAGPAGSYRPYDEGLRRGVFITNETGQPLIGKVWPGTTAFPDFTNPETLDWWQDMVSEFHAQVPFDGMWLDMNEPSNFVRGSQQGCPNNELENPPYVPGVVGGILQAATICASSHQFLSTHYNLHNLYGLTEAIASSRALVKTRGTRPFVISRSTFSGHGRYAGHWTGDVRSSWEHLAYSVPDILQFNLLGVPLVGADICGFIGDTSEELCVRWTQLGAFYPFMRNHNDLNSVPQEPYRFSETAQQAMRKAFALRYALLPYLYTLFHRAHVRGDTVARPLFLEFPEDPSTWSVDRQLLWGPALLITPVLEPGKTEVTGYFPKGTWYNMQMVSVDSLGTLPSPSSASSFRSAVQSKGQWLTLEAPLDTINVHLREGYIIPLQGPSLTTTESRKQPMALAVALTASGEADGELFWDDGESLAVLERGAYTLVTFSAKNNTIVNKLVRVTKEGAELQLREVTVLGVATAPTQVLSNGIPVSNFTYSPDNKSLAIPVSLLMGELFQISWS

Each target was assayed with CN[C@@H]1C[C@H]2O[C@@](C)([C@@H]1OC)n1c3ccccc3c3c4c(c5c6ccccc6n2c5c31)C(=O)NC4 [staurosporine] (assay: log2 fold change of tryptic peptide abundance, ligand vs vehicle (limited proteolysis) (log2 ratio); higher = more trypsin-susceptible (destabilized)). Settings: ligand concentration: 20 uM; sample: mouse liver crude lysate; replicate design: treated separately.

| Target | log2 fold change |
| --- | --- |
| UniProt P99029 (peptide sequence: RFSMVIDNGIVK, peptide start residue: 176) | -0.157 |
| UniProt Q01320 (peptide sequence: LCNIFSTK, peptide start residue: 178) | -0.143 |
| UniProt P97310 (peptide sequence: FVVGSHVR, peptide start residue: 678) | 0.2 |
| UniProt P70694 (peptide sequence: PVCNQVECHPYLNQGK, peptide start residue: 186) | 0.257 |
| UniProt P70295 (peptide sequence: LTPADKAEHMK, peptide start residue: 259) | 0.248 |
| UniProt P70206 (peptide sequence: MVSEIYLTR, peptide start residue: 1672) | 0.151 |
| UniProt P99026 (peptide sequence: AGHWAGGPAPGQFYR, peptide start residue: 9) | 0.374 |
| UniProt P70172 (peptide sequence: TDNEMDSRPSFDETNK, peptide start residue: 326) | 0.0244 |
| UniProt P97355 (peptide sequence: NGSFANLR, peptide start residue: 55) | 0.0303 |
| UniProt P70178 (peptide sequence: LDEAQSEAPETK, peptide start residue: 387) | 0.0499 |
| UniProt P70699 (peptide sequence: EGAELQLR, peptide start residue: 896) | 0.166 |

A few values from the results shown:
Entry of UniProt P99029 (peptide sequence: RFSMVIDNGIVK, peptide start residue: 176) under log2 fold change: -0.157
Entry of UniProt P97355 (peptide sequence: NGSFANLR, peptide start residue: 55) under log2 fold change: 0.0303
